In publication PMC6358217:
No constants are given. Whether binding was seen depends on the method and setting. Binding seen in cells or lysates may run through a third protein. Some binding calls cover weakened binding; strength is not graded here. Where a sequence is shown, tags or fusion partners need not be part of it.

Assays:
[1] = biological target: T1, PIP5Kinase Skittles (SKTL), GFP-tagged (D. melanogaster) (UniProt Q9W2R3); test: co-IP; S2 cell extracts (freeze-thaw lysis) of cells transfected with GFP-SKTL or GFP-SNAP (control) and PAR3-HA; GFP-Trap_MA magnetic beads, 2 h at 4°C; western blot with anti-HA and anti-DLIC
T1 sequence: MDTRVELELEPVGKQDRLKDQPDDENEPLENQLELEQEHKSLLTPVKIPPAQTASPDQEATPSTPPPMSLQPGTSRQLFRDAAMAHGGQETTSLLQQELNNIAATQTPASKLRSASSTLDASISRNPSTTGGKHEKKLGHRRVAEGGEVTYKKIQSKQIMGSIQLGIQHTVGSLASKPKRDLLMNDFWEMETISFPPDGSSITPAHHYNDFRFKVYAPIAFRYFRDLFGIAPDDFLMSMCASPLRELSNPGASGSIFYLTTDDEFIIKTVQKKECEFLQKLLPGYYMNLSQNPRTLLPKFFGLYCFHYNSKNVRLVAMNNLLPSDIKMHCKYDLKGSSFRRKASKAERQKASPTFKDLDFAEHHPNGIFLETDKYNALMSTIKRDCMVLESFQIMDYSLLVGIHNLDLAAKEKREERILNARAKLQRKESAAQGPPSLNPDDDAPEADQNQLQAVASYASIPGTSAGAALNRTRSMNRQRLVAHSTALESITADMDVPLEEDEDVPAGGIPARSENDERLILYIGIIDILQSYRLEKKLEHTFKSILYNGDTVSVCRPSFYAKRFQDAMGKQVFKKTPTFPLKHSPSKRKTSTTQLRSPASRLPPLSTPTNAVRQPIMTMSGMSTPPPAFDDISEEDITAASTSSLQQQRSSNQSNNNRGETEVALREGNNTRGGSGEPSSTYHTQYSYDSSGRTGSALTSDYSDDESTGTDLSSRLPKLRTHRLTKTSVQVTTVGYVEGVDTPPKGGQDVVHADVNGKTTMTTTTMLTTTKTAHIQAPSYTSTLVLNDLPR

[2] = biological target: T2, DLIC-GFP (D. melanogaster) (UniProt Q9VZ20); test: co-IP; ovarian extracts of Pubi-DLIC-GFP flies or control Pubi-PDI-GFP flies; lysis buffer 10 mM Tris/Cl pH7.5, 150 mM NaCl, 0.5 mM EDTA, 0.5% NP-40; GFP-Trap_MA magnetic beads, 2 h at 4°C; western blot with anti-PAR3
T2 sequence: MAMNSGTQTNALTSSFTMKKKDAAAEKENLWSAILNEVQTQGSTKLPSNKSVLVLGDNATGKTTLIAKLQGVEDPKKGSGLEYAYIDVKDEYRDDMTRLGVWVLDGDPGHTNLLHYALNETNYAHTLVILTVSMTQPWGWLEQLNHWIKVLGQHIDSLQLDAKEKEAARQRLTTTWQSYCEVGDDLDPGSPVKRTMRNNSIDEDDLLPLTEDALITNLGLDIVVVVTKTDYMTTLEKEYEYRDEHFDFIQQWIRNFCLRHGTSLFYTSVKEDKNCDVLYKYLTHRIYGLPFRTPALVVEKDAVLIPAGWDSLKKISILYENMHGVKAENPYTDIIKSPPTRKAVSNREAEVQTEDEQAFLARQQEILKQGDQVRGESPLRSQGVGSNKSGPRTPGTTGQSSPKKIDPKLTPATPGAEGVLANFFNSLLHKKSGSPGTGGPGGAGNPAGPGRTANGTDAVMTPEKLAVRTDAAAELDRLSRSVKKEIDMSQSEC

Row | Binder | binding [1] | binding [2]
1 | dynein light intermediate chain (DLIC), endogenous in S2 cells (protein, UniProt Q9VZ20 1-493) MAMNSGTQTNALTSSFTMKKKDAAAEKENLWSAILNEVQTQGSTKLPSNKSVLVLGDNATGKTTLIAKLQGVEDPKKGSGLEYAYIDVKDEYRDDMTRLGVWVLDGDPGHTNLLHYALNETNYAHTLVILTVSMTQPWGWLEQLNHWIKVLGQHIDSLQLDAKEKEAARQRLTTTWQSYCEVGDDLDPGSPVKRTMRNNSIDEDDLLPLTEDALITNLGLDIVVVVTKTDYMTTLEKEYEYRDEHFDFIQQWIRNFCLRHGTSLFYTSVKEDKNCDVLYKYLTHRIYGLPFRTPALVVEKDAVLIPAGWDSLKKISILYENMHGVKAENPYTDIIKSPPTRKAVSNREAEVQTEDEQAFLARQQEILKQGDQVRGESPLRSQGVGSNKSGPRTPGTTGQSSPKKIDPKLTPATPGAEGVLANFFNSLLHKKSGSPGTGGPGGAGNPAGPGRTANGTDAVMTPEKLAVRTDAAAELDRLSRSVKKEIDMSQSEC | binds | 
2 | PAR3-HA (protein, UniProt O96782 1-1464) MKVTVCFGDVRILVPCGSGELLVRDLVKEATRRYIKAAGKPDSWVTVTHLQTQSGILDPDDCVRDVADDREQILAHFDDPGPDPGVPQGGGDGASGSSSVGTGSPDIFRDPTNTEAPTCPRDLSTPHIEVTSTTSGPMAGLGVGLMVRRSSDPNLLASLKAEGSNKRWSAAAPHYAGGDSPERLFLDKAGGQLSPQWEEDDDPSHQLKEQLLHQQQPHAANGGSSSGNHQPFARSGRLSMQFLGDGNGYKWMEAAEKLQNQPPAQQTYQQGSHHAGHGQNGAYSSKSLPRESKRKEPLGQAYESIREKDGEMLLIINEYGSPLGLTALPDKEHGGGLLVQHVEPGSRAERGQLRRDDRILEINGIKLIGLTESQVQEQLRRALESSELRVRVLRGDRNRRQQRDSKVADMVEVATVSPTRKPHAAPVGTSLQVANTRKLGRKIQIMLKKGPNGLGFSVTTRDNPAGAHCPIYIKNILPRGAAIEDGRLKPGDRLLEVDGTPMTGKTQTDVVAILRGMPAGATVRIVVSRQQELAEQADQPAEKSAGVAVAPSVAPPAVPAAAAPAPPIPVQKSSSARSLFTHQQQSQLNESQHFIDAGSESAASNDSLPPSSNSWHSREELTLHIPVHDTEKAGLGVSVKGKTCSNLNASGSSASSGSNGLMKHDGDLGIFVKNVIHGGAASRDGRLRMNDQLLSVNGVSLRGQNNAEAMETLRRAMVNTPGKHPGTITLLVGRKILRSASSSDILDHSNSHSHSHSNSSGGSNSNGSGNNNNSSSNASDNSGATVIYLSPEKREQRCNGGGGGGSAGNEMNRWSNPVLDRLTGGICSSNSAQPSSQQSHQQQPHPSQQQQQQRRLPAAPVCSSAALRNESYYMATNDNWSPAQMHLMTAHGNTALLIEDDAEPMSPTLPARPHDGQHCNTSSANPSQNLAVGNQGPPINTVPGTPSTSSNFDATYSSQLSLETNSGVEHFSRDALGRRSISEKHHAALDARETGTYQRNKKLREERERERRIQLTKSAVYGGSIESLTARIASANAQFSGYKHAKTASSIEQRETQQQLAAAEAEARDQLGDLGPSLGMKKSSSLESLQTMVQELQMSDEPRGHQALRAPRGRGREDSLRAAVVSEPDASKPRKTWLLEDGDHEGGFASQRNGPFQSSLNDGKHGCKSSRAKKPSILRGIGHMFRFGKNRKDGVVPVDNYAVNISPPTSVVSTATSPQLQQQQQQQLQQHQQQQQIPTAALAALERNGKPPAYQPPPPLPAPNGVGSNGIHQNDIFNHRYQHYANYEDLHQQHQQHQISRRHQHYHSQRSARSQDVSMHSTSSGSQPGSLAQPQAQSDGVRPMSSYYEYETVQQQRVGSIKHSHSSSATSSSSSPINVPHWKAAAMNGYSPASLNSSARSRGPFVTQVTIREQSSGGIPAHLLQQHQQQQLQQQQPTYQTVQKMSGPSQYGSAAGSQPHASKV | binds | 
3 | endogenous PAR3 of ovarian extract (protein, UniProt O96782 1-1464) MKVTVCFGDVRILVPCGSGELLVRDLVKEATRRYIKAAGKPDSWVTVTHLQTQSGILDPDDCVRDVADDREQILAHFDDPGPDPGVPQGGGDGASGSSSVGTGSPDIFRDPTNTEAPTCPRDLSTPHIEVTSTTSGPMAGLGVGLMVRRSSDPNLLASLKAEGSNKRWSAAAPHYAGGDSPERLFLDKAGGQLSPQWEEDDDPSHQLKEQLLHQQQPHAANGGSSSGNHQPFARSGRLSMQFLGDGNGYKWMEAAEKLQNQPPAQQTYQQGSHHAGHGQNGAYSSKSLPRESKRKEPLGQAYESIREKDGEMLLIINEYGSPLGLTALPDKEHGGGLLVQHVEPGSRAERGQLRRDDRILEINGIKLIGLTESQVQEQLRRALESSELRVRVLRGDRNRRQQRDSKVADMVEVATVSPTRKPHAAPVGTSLQVANTRKLGRKIQIMLKKGPNGLGFSVTTRDNPAGAHCPIYIKNILPRGAAIEDGRLKPGDRLLEVDGTPMTGKTQTDVVAILRGMPAGATVRIVVSRQQELAEQADQPAEKSAGVAVAPSVAPPAVPAAAAPAPPIPVQKSSSARSLFTHQQQSQLNESQHFIDAGSESAASNDSLPPSSNSWHSREELTLHIPVHDTEKAGLGVSVKGKTCSNLNASGSSASSGSNGLMKHDGDLGIFVKNVIHGGAASRDGRLRMNDQLLSVNGVSLRGQNNAEAMETLRRAMVNTPGKHPGTITLLVGRKILRSASSSDILDHSNSHSHSHSNSSGGSNSNGSGNNNNSSSNASDNSGATVIYLSPEKREQRCNGGGGGGSAGNEMNRWSNPVLDRLTGGICSSNSAQPSSQQSHQQQPHPSQQQQQQRRLPAAPVCSSAALRNESYYMATNDNWSPAQMHLMTAHGNTALLIEDDAEPMSPTLPARPHDGQHCNTSSANPSQNLAVGNQGPPINTVPGTPSTSSNFDATYSSQLSLETNSGVEHFSRDALGRRSISEKHHAALDARETGTYQRNKKLREERERERRIQLTKSAVYGGSIESLTARIASANAQFSGYKHAKTASSIEQRETQQQLAAAEAEARDQLGDLGPSLGMKKSSSLESLQTMVQELQMSDEPRGHQALRAPRGRGREDSLRAAVVSEPDASKPRKTWLLEDGDHEGGFASQRNGPFQSSLNDGKHGCKSSRAKKPSILRGIGHMFRFGKNRKDGVVPVDNYAVNISPPTSVVSTATSPQLQQQQQQQLQQHQQQQQIPTAALAALERNGKPPAYQPPPPLPAPNGVGSNGIHQNDIFNHRYQHYANYEDLHQQHQQHQISRRHQHYHSQRSARSQDVSMHSTSSGSQPGSLAQPQAQSDGVRPMSSYYEYETVQQQRVGSIKHSHSSSATSSSSSPINVPHWKAAAMNGYSPASLNSSARSRGPFVTQVTIREQSSGGIPAHLLQQHQQQQLQQQQPTYQTVQKMSGPSQYGSAAGSQPHASKV |  | binds weakly
